Test results as given in PubChem BioAssay AID485314 (National Center for Advancing Translational Sciences (NCATS), 2010).
The campaign covered roughly 340,000 compounds. About 4,500 (1.3%) were called active. The shares of active, inactive and inconclusive entries below differ from those in the screen. The call rests on the fitted dose curve; in most records, active means well fitted inhibition curve with a large enough effect; inconclusive means small, poorly fitted or top-dose-only effect, or another doubt; inactive means no such curve, though single readings can be large or run the other way. Potencies beside an inconclusive call are fits to weak or partial responses and may not hold up.

The compounds below were run against DNA polymerase beta (Homo sapiens) (UniProt P06746) (assay: qHTS Assay for Inhibitors of DNA Polymerase Beta). Conditions: Pol beta primer extension/strand displacement, fluorescence kinetic; activity change, negative = inhibition: at 114 µM (top of the series).
Procedure, shortened: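 Pol beta (10 nM) was preincubated with compound for 15 min at room temperature. The reaction was then started with 50 nM substrate and read immediately and after a further 10 min at room temperature.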
On the % scale 0 is the no-effect control and ±100 the full control effect; potency means the concentration at half of the fitted maximal effect.

Row | SMILES | Potency | activity change, negative = inhibition
1 | COc1cccc(CN(C)CC(=O)NC(=O)NCc2ccco2)c1 | active: 15.8 µM | 
2 | O=C(O)CCC(=O)NNc1ncnc2ccccc12 | inactive | 
3 | COc1ccc(NC(=O)c2c3c(nc4ccccc24)CCC3)cc1S(=O)(=O)N1CCOCC1 | inconclusive: 3.55 µM [inhibitor, full curve, poor fit] | 
4 | Fc1cccc(-c2nc(-c3ccncc3)no2)c1 | inactive | 
5 | O=C(CCCN1C(=O)/C(=C/c2cccs2)SC1=S)NNC(=O)c1cccnc1 |  | inconclusive: -35.9% [inhibitor]
6 | CC(=O)Cn1cnc2c(sc3nc(C)cc(C)c32)c1=O | inconclusive: 100 µM [inhibitor, single point] | 
7 | O=C(Nc1nc(-c2cccs2)cs1)c1cccc(S(=O)(=O)N2CCCCC2)c1 | inconclusive: 39.8 µM [inhibitor, single point] | 
8 | O=C(Nc1ccccc1)/C(=C/c1ccccc1)c1ccccc1 | inconclusive: 22.4 µM [inhibitor, single point] | 
9 | O=C(O)C1CCN(S(=O)(=O)c2cccs2)CC1 | inconclusive: 0.316 µM [inhibitor, full curve] | 
10 | CCC1CCc2c(sc3nc(SCC(=O)NCc4ccco4)n(-c4ccccc4)c(=O)c23)C1 (stereo unspecified) | inconclusive: 0.141 µM [inhibitor, full curve, poor fit] | 
11 | CCCN(CCC)CCCNC(=O)C1CCC(CNS(=O)(=O)c2ccc(NC(C)=O)cc2)CC1 (stereo unspecified) | inactive | 
12 | O=C(Nc1cccc(NC(=O)N2CCN(c3ccccc3)CC2)c1)N1CCN(c2ccccc2)CC1 | inconclusive: 31.6 µM [inhibitor, partial curve, poor fit] | 
13 | CC(=O)NC1C(=O)N(CCN2CCOCC2)c2ccc(C)cc21 (stereo unspecified) | inconclusive: 89.1 µM [inhibitor, single point] | 
14 | Cc1cc2ccccn2c1C(=O)c1cccc(F)c1 | inconclusive: 100 µM [inhibitor, single point] | 
15 | Cn1cnnc1SCC(=O)NC1CCCCCC1 | inconclusive: 0.355 µM [inhibitor, full curve, poor fit] | 
16 | CCOc1ccc(-c2cc(C(=O)NCCCn3ccnc3)c3cc(Br)ccc3n2)cc1 | inconclusive: 17.8 µM [inhibitor, full curve] | 
17 | COc1ccc(OCC(=O)Nc2cccc(NC(=O)c3ccco3)c2)cc1 | inconclusive: 1.78 µM [inhibitor, full curve] | 
18 | Cc1ccc(Cl)cc1N1CCN(C(=O)c2cc(S(=O)(=O)N3CCC(C)CC3)cn2C)CC1 | inconclusive: 89.1 µM [inhibitor, single point] | 
19 | Cc1cccc2nc(COc3ccc(Cl)c4cccnc34)cn12 | inconclusive: 56.2 µM [inhibitor, partial curve] | 
20 | Cc1cc(C)c(NC(=O)c2ccc(S(=O)(=O)N(C)C)cc2)c(C)n1 | inconclusive: 0.708 µM [inhibitor, partial curve, poor fit] | 
21 | COC(=O)c1ccc(C2Nc3c(C)cc(C)cc3C3C=CCC32)cc1 (stereo unspecified) | inconclusive: 28.2 µM [inhibitor, single point] | 
22 | COc1cc(C(CC(=O)N2CCCC2)c2c(OC)cc(OC)c3c(-c4ccccc4)cc(=O)oc23)cc(OC)c1OC (stereo unspecified) | active: 44.7 µM | 

As entered above.
Potency, COc1ccc(OCC(=O)Nc2cccc(NC(=O)c3ccco3)c2)cc1 reads inconclusive: 1.78 µM [inhibitor, full curve]
Potency, CC(=O)NC1C(=O)N(CCN2CCOCC2)c2ccc(C)cc21 (stereo unspecified) reads inconclusive: 89.1 µM [inhibitor, single point]
Potency, COc1ccc(NC(=O)c2c3c(nc4ccccc24)CCC3)cc1S(=O)(=O)N1CCOCC1 reads inconclusive: 3.55 µM [inhibitor, full curve, poor fit]

The list goes on:

Row | SMILES | Potency | activity change, negative = inhibition
23 | CN(CC(=O)OCC(=O)NCc1ccccc1)S(=O)(=O)c1ccc(Cl)cc1 | inconclusive: 0.141 µM [inhibitor, full curve, poor fit] | 
24 | C=CCn1c(SCC#N)nc2c(c1=O)C(C)(C)Cc1ccccc1-2 | inconclusive: 2.51 µM [inhibitor, full curve, poor fit] | 
25 | Cc1ccc(CNC(=O)C2CCN(S(=O)(=O)c3ccc4c(c3)OCCCO4)CC2)cc1 | inconclusive: 89.1 µM [inhibitor, single point] | 
26 | CC1(C)CC(=O)C/C(=N\NC(=O)C2CC2c2ccccc2)C1 (stereo unspecified) | inconclusive: 100 µM [inhibitor, single point] | 
27 | COc1ccc(OC)c(NC(=O)c2cc(-c3ccc(C)cc3O)n[nH]2)c1 | inconclusive: 11.2 µM [inhibitor, full curve] | 
28 | CNC(=O)NC(=O)C(C)OC(=O)c1c2c(nc3ccccc13)/C(=C/c1cccs1)CC2 (stereo unspecified) | inconclusive: 28.2 µM [inhibitor, partial curve] | 
29 | CCCS(=O)(=O)c1ncc(Cl)c(C(=O)N(Cc2ccccc2)Cc2ccco2)n1 | inactive | 
30 | CCOC(=O)c1c(NC(=O)c2nn(CC)cc2Br)c(C#N)cn1-c1ccccc1 | inconclusive: 79.4 µM [inhibitor, single point] | 
31 | C[C@@H]1Cc2c(O)c(O)cc(O)c2C(=O)O1 | active: 2.82 µM | 
32 | COc1ccccc1NC(=O)N1CC(=O)Nc2sc3c(c2C1c1ccccc1)CCCC3 (stereo unspecified) | inactive | 
33 | CC(=O)Nc1ccc(NC(=O)CSc2nnc(CC(C)O)n2-c2ccccc2)cc1 (stereo unspecified) | inconclusive: 100 µM [inhibitor, single point] | 
34 | O=C(Cn1ncc2c1-c1ccccc1OC2)N1CCc2ccccc21 | inconclusive: 79.4 µM [inhibitor, single point] | 
35 | CCN(CC)c1ccc(C(=O)OCC(=O)Nc2ccc3[nH]c(=O)[nH]c3c2)cc1 | inconclusive: 0.141 µM [inhibitor, full curve, poor fit] | 
36 | Cc1cc(C)c(NC(=O)Cn2nc3c(cc2=O)CCCC3)c(C)c1 | inactive | 
37 | FC(F)(F)c1nc2ccccc2n1CCNc1nc(CN2CCCCC2)cs1 | inconclusive: 50.1 µM [inhibitor, partial curve] | 
38 | Cc1ccc(NC(=S)N2CCC(NC(=O)c3ccc(F)cc3)CC2)cc1C | inconclusive: 12.6 µM [inhibitor, partial curve] | 
39 | CCCCCC(=O)Nc1cccc(C2=NOC3(C2)C[C@H](C(N)=O)N(C(=O)CC#N)C3)c1 (stereo partly specified) | active: 39.8 µM | 
40 | Cc1cc(NC(=O)N2CC=C(c3c[nH]c4ccccc34)CC2)ccc1Br | inconclusive: 79.4 µM [inhibitor, single point] | 
41 | CCOC(=O)c1c(N)n(-c2ccc(C)c(C)c2)c2nc3ccccc3nc12 | inconclusive: 89.1 µM [inhibitor, single point] | 
42 | Cc1[nH][nH]c(=O)c1C(c1ccc(-c2ccc(F)cc2)o1)c1c(C)[nH][nH]c1=O | inconclusive: 1.41 µM [inhibitor, full curve, poor fit] | 
43 | Cc1noc(NS(=O)(=O)c2ccc(NC(=O)c3oc4ccc(Cl)cc4c3C)cc2)c1C | inconclusive: 63.1 µM [inhibitor, single point] | 
44 | COc1cccc(CNC(=O)Cn2cc3c(n2)-c2c(oc(C(=O)N4CCCC4)c2C)CC3)c1OC | inactive | 

Row | SMILES | Potency | activity change, negative = inhibition
45 | Cc1cccc(N2CCN(S(=O)(=O)c3ccc(-c4cc(C)no4)s3)CC2C)c1 (stereo unspecified) | inactive | 
46 | COc1ccc(-c2noc(-c3ccc(NCc4ccc(C)cc4)c([N+](=O)[O-])c3)n2)cc1OC | inconclusive: 70.8 µM [inhibitor, partial curve] | 
47 | Cn1c(=O)c2c(nc(SCC(=O)Nc3ccc(OC(F)(F)F)cc3)n2Cc2cccc(C(F)(F)F)c2)n(C)c1=O | inactive | 
48 | COc1ccc(-c2nnc(SCC(=O)N(C)C3CCS(=O)(=O)C3)n2N)cc1OC (stereo unspecified) | inconclusive: 89.1 µM [inhibitor, single point] | 
49 | Nc1ccn([C@@H]2O[C@H](CO)[C@@H](O)[C@@H]2O)c(=O)n1 | inconclusive: 100 µM [inhibitor, single point] | 
50 | COc1cccc(/C=N/n2c(-c3n[nH]c4c3CCC4)n[nH]c2=S)c1O | inactive | 
51 | Cc1ccc(C)c(C(=O)COC(=O)CNS(=O)(=O)c2ccccc2)c1 | inconclusive: 89.1 µM [inhibitor, single point] | 
52 | O=C(NNS(=O)(=O)c1cccc(Cl)c1)c1cc(-c2ccc(F)cc2)nc2ccccc12 | active: 50.1 µM | 
53 | O=C(Nc1nnc(SCc2c(Cl)cccc2Cl)s1)C1CC(=O)N(c2ccc3c(c2)OCCO3)C1 (stereo unspecified) | active: 7.08 µM | 
54 | COc1ccccc1C(=O)NCC(=O)N/N=C/c1ccc([N+](=O)[O-])cc1 | inconclusive: 39.8 µM [inhibitor, partial curve, poor fit] | 
55 | C=CCn1c(=S)[nH]c2scc(-c3ccco3)c2c1=O |  | inconclusive: -126% [inhibitor]
56 | CCC(C)NC(=O)C(=O)NCc1ccccn1 (stereo unspecified) | inconclusive: 25.1 µM [inhibitor, single point] | 
57 | Cc1ccc2cc(CN(CCN3CCCC3)C(=O)Nc3ccccc3)c(=O)[nH]c2c1C | inconclusive: 11.2 µM [inhibitor, single point] | 
58 | COc1cc(C(=O)Oc2cccc(C(=S)N3CCOCC3)c2)cc(OC)c1OC | inconclusive: 10 µM [inhibitor, full curve, poor fit] | 
59 | Cc1ccc(NC(=O)c2ccc3c(c2)N(CC(=O)NC(C)C)C(=O)C(C)(C)O3)cc1 | inconclusive: 100 µM [inhibitor, single point] | 
60 | O=C(O)CCN1C(=O)C2CCCCC2C1=O (stereo unspecified) | inactive | 
61 | CCOC(=O)c1cc(S(=O)(=O)Nc2ccc(OC)c(Cl)c2)[nH]n1 | inactive | 
62 | CN1C(=O)Cc2cc(S(=O)(=O)CCC(=O)Nc3cccc(C(F)(F)F)c3)ccc21 | inactive | 
63 | CCc1nc2sc3ccccc3c(=O)c2c(=O)n1Cc1ccco1 | active: 20 µM | 
64 | c1ccc(Nc2nc(NCc3ccco3)c3ccccc3n2)cc1 | inactive | 
65 | O=C1CCc2cc(S(=O)(=O)NCc3ccc(F)cc3)cc3c2N1CC3 | inconclusive: 89.1 µM [inhibitor, single point] | 
66 | O=C(CCCCCNC(=O)c1ccccc1Cl)N/N=C/c1ccco1 | inconclusive: 20 µM [inhibitor, full curve] | 
